# The list shows a part of the results. The data scatter; read single values as rough.
# Sequences of proteins named here, by UniProt entry; tags and fusion partners are left off. A change or cut given only in a name is not applied to a line headed by its entry. Residues count along the entry.
# UniProt P49454: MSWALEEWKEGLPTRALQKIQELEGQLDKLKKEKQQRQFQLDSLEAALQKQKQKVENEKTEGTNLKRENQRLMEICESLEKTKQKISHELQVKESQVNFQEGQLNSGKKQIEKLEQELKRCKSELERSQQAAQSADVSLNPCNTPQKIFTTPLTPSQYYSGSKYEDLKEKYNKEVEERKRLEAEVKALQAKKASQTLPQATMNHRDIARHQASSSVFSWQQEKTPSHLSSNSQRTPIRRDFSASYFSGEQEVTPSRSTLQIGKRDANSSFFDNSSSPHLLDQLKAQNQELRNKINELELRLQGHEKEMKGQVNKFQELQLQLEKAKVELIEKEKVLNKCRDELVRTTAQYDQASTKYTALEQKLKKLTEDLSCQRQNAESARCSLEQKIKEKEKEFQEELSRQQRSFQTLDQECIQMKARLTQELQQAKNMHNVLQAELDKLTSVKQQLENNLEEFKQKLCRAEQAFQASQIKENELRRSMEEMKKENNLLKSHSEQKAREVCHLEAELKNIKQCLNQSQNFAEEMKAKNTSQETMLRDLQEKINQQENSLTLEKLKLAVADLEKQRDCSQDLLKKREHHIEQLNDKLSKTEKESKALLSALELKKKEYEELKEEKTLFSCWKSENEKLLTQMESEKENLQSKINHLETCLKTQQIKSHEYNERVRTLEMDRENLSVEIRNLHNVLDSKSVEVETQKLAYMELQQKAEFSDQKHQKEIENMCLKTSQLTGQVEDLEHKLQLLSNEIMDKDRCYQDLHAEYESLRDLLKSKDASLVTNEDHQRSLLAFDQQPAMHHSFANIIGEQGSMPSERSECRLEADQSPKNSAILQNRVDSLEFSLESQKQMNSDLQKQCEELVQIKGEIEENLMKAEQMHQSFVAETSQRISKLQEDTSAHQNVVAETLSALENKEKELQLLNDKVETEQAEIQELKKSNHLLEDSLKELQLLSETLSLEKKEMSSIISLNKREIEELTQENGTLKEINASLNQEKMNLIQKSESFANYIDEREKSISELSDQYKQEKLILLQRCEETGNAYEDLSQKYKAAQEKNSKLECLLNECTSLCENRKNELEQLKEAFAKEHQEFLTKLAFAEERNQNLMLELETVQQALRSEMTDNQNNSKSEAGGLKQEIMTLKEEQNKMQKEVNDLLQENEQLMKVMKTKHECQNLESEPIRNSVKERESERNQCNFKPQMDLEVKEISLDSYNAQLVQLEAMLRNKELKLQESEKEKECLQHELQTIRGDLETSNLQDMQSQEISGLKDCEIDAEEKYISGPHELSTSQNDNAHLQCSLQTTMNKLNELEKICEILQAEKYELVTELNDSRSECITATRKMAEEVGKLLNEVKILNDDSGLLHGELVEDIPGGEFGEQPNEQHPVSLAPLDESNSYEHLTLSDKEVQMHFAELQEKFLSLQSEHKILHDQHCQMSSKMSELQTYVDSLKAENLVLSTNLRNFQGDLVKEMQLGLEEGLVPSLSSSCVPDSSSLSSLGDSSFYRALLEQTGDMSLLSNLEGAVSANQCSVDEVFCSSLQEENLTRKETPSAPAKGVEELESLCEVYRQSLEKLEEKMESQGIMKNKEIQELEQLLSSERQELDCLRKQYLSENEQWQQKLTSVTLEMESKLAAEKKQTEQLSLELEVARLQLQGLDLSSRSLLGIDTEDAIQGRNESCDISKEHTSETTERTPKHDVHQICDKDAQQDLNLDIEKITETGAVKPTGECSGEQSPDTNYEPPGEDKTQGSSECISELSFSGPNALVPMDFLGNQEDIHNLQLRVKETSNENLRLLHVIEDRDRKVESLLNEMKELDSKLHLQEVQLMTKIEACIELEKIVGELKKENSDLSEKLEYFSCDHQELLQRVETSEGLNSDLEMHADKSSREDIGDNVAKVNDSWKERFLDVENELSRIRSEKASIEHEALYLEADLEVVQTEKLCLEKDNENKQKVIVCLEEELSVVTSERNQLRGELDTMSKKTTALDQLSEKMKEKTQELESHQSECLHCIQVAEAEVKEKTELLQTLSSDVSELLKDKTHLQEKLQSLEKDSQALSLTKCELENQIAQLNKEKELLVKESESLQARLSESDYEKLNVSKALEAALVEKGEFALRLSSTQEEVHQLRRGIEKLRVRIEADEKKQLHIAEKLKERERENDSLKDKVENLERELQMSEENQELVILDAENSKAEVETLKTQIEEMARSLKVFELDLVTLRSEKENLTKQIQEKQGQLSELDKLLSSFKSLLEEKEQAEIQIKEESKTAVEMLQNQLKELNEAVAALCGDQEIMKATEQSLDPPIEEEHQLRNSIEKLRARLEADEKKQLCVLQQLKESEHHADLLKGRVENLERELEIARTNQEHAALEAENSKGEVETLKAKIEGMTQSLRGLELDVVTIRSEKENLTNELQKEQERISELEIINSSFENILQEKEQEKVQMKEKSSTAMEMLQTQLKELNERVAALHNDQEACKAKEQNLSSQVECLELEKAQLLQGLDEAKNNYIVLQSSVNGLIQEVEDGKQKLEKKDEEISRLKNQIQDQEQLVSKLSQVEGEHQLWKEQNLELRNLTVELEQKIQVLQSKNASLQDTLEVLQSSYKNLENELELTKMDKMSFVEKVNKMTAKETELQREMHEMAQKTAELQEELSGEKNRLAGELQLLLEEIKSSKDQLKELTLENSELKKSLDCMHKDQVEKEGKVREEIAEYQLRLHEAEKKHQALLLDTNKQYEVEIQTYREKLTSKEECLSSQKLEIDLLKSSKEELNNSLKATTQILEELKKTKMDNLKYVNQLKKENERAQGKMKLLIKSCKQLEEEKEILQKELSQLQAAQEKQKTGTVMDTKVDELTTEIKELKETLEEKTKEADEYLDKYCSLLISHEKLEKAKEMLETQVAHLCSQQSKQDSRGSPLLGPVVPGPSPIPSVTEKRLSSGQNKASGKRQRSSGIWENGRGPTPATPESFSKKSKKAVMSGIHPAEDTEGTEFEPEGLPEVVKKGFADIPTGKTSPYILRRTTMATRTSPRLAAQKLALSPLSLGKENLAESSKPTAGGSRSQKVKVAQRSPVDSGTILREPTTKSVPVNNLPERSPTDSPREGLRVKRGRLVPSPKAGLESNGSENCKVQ
# UniProt P57076: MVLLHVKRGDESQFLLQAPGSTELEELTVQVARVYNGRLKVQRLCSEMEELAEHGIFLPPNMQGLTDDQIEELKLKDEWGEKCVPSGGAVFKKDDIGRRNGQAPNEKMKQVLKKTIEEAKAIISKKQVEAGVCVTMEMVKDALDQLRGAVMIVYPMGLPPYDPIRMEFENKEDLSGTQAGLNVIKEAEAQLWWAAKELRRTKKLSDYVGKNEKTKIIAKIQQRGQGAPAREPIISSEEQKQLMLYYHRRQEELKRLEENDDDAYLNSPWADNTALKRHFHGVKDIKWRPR
# UniProt Q96A19: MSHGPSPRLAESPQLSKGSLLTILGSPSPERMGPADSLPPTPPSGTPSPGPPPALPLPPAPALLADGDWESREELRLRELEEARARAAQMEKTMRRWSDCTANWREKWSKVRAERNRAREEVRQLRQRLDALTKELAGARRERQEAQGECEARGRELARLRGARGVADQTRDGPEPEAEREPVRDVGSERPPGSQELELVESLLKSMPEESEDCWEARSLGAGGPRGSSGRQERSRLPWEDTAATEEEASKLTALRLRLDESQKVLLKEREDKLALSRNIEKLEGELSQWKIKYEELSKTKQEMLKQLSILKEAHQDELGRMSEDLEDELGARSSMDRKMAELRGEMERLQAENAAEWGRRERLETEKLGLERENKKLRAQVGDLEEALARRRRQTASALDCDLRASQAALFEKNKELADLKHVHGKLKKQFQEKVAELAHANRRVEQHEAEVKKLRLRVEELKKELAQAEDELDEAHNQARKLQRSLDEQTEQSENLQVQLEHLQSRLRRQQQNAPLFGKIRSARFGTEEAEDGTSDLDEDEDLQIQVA
# UniProt Q5TB80: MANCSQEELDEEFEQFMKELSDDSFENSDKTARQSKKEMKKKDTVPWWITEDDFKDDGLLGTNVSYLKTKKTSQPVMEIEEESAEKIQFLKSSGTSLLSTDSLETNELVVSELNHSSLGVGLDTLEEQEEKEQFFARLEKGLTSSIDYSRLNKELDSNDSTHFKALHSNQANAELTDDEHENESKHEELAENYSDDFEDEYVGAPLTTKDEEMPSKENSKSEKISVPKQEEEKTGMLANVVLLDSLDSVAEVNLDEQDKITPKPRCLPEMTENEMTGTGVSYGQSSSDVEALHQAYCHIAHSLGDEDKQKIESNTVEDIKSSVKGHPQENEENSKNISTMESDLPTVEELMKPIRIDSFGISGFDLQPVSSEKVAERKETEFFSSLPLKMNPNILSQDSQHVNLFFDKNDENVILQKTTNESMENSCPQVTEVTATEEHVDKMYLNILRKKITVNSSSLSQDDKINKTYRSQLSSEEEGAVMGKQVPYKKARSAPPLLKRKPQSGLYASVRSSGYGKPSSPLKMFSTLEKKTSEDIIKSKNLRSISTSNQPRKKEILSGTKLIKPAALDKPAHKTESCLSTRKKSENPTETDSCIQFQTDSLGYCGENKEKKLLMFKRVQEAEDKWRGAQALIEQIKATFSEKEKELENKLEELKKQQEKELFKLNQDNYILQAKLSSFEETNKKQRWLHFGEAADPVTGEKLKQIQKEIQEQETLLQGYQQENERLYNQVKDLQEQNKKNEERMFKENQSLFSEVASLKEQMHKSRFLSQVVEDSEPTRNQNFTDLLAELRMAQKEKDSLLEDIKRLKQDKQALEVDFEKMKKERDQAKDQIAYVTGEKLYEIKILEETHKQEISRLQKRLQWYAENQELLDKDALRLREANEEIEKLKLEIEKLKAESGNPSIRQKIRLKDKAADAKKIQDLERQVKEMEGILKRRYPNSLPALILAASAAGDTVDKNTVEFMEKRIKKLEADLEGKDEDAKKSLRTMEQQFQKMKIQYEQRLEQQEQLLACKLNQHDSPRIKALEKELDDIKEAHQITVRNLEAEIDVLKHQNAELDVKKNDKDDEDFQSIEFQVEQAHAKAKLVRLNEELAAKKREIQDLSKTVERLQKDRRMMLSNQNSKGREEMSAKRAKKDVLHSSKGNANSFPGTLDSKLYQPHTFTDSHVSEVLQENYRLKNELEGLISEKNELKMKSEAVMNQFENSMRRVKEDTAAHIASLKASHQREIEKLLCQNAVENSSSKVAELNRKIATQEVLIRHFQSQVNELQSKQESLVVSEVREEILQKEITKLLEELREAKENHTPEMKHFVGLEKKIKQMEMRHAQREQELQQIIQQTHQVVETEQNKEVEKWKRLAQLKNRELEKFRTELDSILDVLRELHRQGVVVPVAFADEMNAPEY
# UniProt Q01850: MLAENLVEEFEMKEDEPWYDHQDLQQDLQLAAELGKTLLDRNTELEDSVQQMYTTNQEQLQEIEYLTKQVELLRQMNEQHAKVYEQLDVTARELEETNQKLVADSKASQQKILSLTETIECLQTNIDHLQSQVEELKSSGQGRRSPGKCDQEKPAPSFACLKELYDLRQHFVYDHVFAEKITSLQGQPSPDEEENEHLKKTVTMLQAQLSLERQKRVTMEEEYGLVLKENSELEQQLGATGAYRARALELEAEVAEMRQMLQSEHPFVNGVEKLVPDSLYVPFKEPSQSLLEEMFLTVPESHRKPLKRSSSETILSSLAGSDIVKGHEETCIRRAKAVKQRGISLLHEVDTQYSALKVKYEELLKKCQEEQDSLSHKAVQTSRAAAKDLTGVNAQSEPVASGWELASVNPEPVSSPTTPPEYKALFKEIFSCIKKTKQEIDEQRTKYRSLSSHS
# UniProt Q15834: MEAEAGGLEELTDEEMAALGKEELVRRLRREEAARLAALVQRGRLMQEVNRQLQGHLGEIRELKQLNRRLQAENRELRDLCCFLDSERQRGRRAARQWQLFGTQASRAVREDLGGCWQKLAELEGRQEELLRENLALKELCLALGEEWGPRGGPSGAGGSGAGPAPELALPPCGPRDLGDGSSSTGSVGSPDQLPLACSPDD
# UniProt Q99832: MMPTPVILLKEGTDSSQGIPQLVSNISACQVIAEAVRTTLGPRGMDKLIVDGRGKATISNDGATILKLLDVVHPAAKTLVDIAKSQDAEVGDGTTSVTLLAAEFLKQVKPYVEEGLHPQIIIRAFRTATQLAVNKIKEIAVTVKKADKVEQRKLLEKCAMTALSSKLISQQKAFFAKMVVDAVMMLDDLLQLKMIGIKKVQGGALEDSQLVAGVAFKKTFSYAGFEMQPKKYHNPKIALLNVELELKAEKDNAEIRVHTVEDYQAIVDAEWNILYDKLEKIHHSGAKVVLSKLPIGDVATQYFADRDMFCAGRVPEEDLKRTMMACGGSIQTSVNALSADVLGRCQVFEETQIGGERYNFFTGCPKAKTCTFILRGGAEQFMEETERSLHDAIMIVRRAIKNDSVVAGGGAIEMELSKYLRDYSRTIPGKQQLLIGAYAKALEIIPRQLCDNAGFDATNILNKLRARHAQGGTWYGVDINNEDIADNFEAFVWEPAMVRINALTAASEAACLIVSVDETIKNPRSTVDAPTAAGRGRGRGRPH
# UniProt Q86WJ1, 321-348: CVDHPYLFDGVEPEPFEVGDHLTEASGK
# How the values were obtained:
# [1] = compound: ClCC(=O)N[C@@H]1CCCc2ccccc12; test: log2 mean competition ratio of IA-DTB cysteine labelling (DMSO/compound) (log2 ratio); higher = stronger cysteine engagement by compound; settings: treatment time: 4 h, cell line lysate: HEK293T
# Method: (§1)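 IA-DTB competitive cysteine chemoproteomics in HEK293T RIPA lysate. Lysates were treated with compound 29 or 30 at 50 or 200 µM for 4 h, then IA-DTB (500 µM, 1 h), trypsin-digested, NeutrAvidin-enriched and analysed by diaPASEF. Competition ratio = intensity DMSO / intensity compound (n=4 treated, n=64 DMSO); binding: mean log2 CR ≥ 1 and p ≤ 0.05 plus QC filters. Target is the cysteine site.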
# [2] = compound: ClCC(=O)N[C@H]1CCCc2ccccc12; test: as above; settings: treatment time: 4 h, cell line lysate: HEK293T
# Method: as §1
Target,log2 mean competition ratio ([1]; 50 µM),log2 mean competition ratio ([1]; 200 µM),log2 mean competition ratio ([2]; 50 µM),log2 mean competition ratio ([2]; 200 µM)
CCP110 C436 (UniProt O43303),0.0229,0.277,-0.35,0.249
CDC37 C64,-0.352,-0.0219,-0.315,0.0157
CCSER2 C672 (UniProt Q9H7U1),-0.0667,-0.00203,-0.0392,0.0681
CENPE C1644 (UniProt Q02224),-0.12,0.268,-0.153,0.0347
CENPF C2889 (UniProt P49454),-0.0671,-0.0327,-0.214,-0.0368
CDYL C515 (UniProt Q9Y232),0.175,-0.0853,-0.099,0.144
CDK12 C1009 (UniProt Q9NYV4),0.181,-0.174,0.188,-0.227
CEP192 C594 (UniProt Q8TEP8),-0.0671,0.319,0.164,0.0947
CELF1 C119 (UniProt Q92879),-0.178,-0.0515,-0.246,-0.0483
CENPM C110 (UniProt Q9NSP4),0.508,-0.534,-0.0493,-0.404
CD99L2 C236 (UniProt Q8TCZ2),-0.271,-0.522,-0.102,-0.206
CFAP298 C83 (UniProt P57076),-0.0952,-0.107,-0.143,0.0138
CENPH C35 (UniProt Q9H3R5),-0.115,0.0836,-0.254,-0.00422
CEP63 C53 (UniProt Q96MT8),-0.289,-0.183,-0.148,-0.199
CHAF1A C21 (UniProt Q13111),0.00423,0.181,0.371,0.335
CENPE C2162 (UniProt Q02224),0.0944,-0.11,0.126,-0.101
CCNH C244 (UniProt P51946),0.00787,-0.315,-0.434,-0.246
CFL1 C80,-0.0902,-0.36,-0.355,-0.741
CEP104 C525 (UniProt O60308),-0.152,0.015,0.122,-0.0646
CHD3 C1838 (UniProt Q12873),-0.0435,0.135,-0.348,-0.0354
CDC23 C532 (UniProt Q9UJX2),0.208,0.0076,0.119,-0.082
CDC5L C96 (UniProt Q99459),0.272,-0.00933,-0.138,-0.236
CC2D1B C809 (UniProt Q5T0F9),-0.0895,-0.0386,-0.246,-0.0695
CEP350 C2438 (UniProt Q5VT06),-0.0926,0.0619,0.265,-0.385
CCDC102A C214 (UniProt Q96A19),0.0623,-0.12,0.126,0.274
CENPF C1671 (UniProt P49454),-0.0835,-0.0532,0.0201,0.0573
CHD3 C1551 (UniProt Q12873),0.41,-0.427,0.472,-0.6

# 5 entries picked at random from those above, as already listed:
Target,log2 mean competition ratio ([1]; 50 µM),log2 mean competition ratio ([1]; 200 µM),log2 mean competition ratio ([2]; 50 µM),log2 mean competition ratio ([2]; 200 µM)
CENPH C35 (UniProt Q9H3R5),-0.115,0.0836,-0.254,-0.00422
CD99L2 C236 (UniProt Q8TCZ2),-0.271,-0.522,-0.102,-0.206
CCNH C244 (UniProt P51946),0.00787,-0.315,-0.434,-0.246
CCDC102A C214 (UniProt Q96A19),0.0623,-0.12,0.126,0.274
CFAP298 C83 (UniProt P57076),-0.0952,-0.107,-0.143,0.0138

# Following part.

Target,log2 mean competition ratio ([1]; 50 µM),log2 mean competition ratio ([1]; 200 µM),log2 mean competition ratio ([2]; 50 µM),log2 mean competition ratio ([2]; 200 µM)
CENPC C800 (UniProt Q03188),0.0564,0.328,-0.156,0.307
CEP162 C1014 (UniProt Q5TB80),-0.21,0.145,-0.0659,0.599
CENPE C2626 (UniProt Q02224),-0.0462,0.165,0.122,0.132
CCT3 C398,0.201,-0.0121,0.402,0.105
CEP162 C1235 (UniProt Q5TB80),–,–,-0.111,0.039
CDKN2C C141 (UniProt P42773),–,–,0.0941,0.00794
CCT3 C455,0.0354,-0.172,-0.0804,-0.148
CEP350 C2956 (UniProt Q5VT06),-0.103,0.151,-0.0679,0.0447
CDK6 C83 (UniProt Q00534),–,–,0.26,0.141
CCDC8 C256 (UniProt Q9H0W5),–,–,-0.0906,-0.0406
CDR2 C367 (UniProt Q01850),–,–,0.0859,0.12
CCDC85B C116 (UniProt Q15834),–,–,0.249,0.179
CHAF1A C190 (UniProt Q13111),–,0.258,-0.524,0.209
CEP162 C578 (UniProt Q5TB80),0.203,0.38,0.142,0.00561
CCSER1 C230,-0.0232,0.0765,-0.014,0.187
CDK5RAP2 C249 (UniProt Q96SN8),–,–,0.711,-0.0282
CDC5L C769 (UniProt Q99459),–,–,-0.418,0.092
CDK5RAP3 C165 (UniProt Q96JB5),–,–,-0.0225,-0.0974
CERS5 C369 (UniProt Q8N5B7),0.373,0.443,-0.361,0.77
CFAP97 C27 (UniProt Q9P2B7),–,–,–,0.318
CCP110 C535 (UniProt O43303),–,–,-0.0992,0.221
CEP55 C440 (UniProt Q53EZ4),–,–,-0.3,0.162
CEBPZ C560 (UniProt Q03701),–,–,0.0835,0.654
CECR2 C1084,–,–,0.47,0.141
CCDC18 C681 (UniProt Q5T9S5),–,–,-0.205,0.0347
CERT1 C185,0.00962,0.122,-0.588,-0.055
CERK C50,-0.33,0.0111,-0.406,0.152

Target,log2 mean competition ratio ([1]; 50 µM),log2 mean competition ratio ([1]; 200 µM),log2 mean competition ratio ([2]; 50 µM),log2 mean competition ratio ([2]; 200 µM)
CCDC186 C145 (UniProt Q7Z3E2),–,0.328,0.594,0.229
CCT4 C379 (UniProt P50991),–,–,-0.112,-0.102
CEP170 C212 (UniProt Q5SW79),–,–,0.0171,-0.068
CCT5 C429 (UniProt P48643),–,–,0.16,-0.274
CDS1 C10 (UniProt Q92903),0.0758,0.0344,-0.151,-0.025
CEP295 C874 (UniProt Q9C0D2),–,–,-0.0272,-0.0108
CDCA5 C195 (UniProt Q96FF9),0.416,0.118,0.493,0.284
CDCA2 C46 (UniProt Q69YH5),-0.106,0.0827,-0.0325,0.0415
CDK5 C83 (UniProt Q00535),–,–,-0.452,0.184
CENPV C219 (UniProt Q7Z7K6),–,0.182,0.206,0.254
CERT1 C70,–,–,0.267,0.147
CEP95 C276,-0.159,–,0.334,0.172
CDK6 C280 (UniProt Q00534),–,–,0.133,-0.0316
CDR2 C331 (UniProt Q01850),–,–,0.18,-0.0155
CCT7 C370 (UniProt Q99832),–,–,0.171,-0.00229
CEP44 C355 (UniProt Q9C0F1),–,–,0.0342,0.0444
CCT2 C535 (UniProt P78371),–,–,-0.0309,-0.18
CDK2 C177 (UniProt P24941),–,–,0.206,-0.145
CDK10 C317 (UniProt Q15131),–,–,-0.025,0.0787
CDK5RAP1 C538 (UniProt Q96SZ6),–,–,0.0298,0.0986
CHD2 C415 (UniProt O14647),–,–,-0.0301,0.57
CDC23 C442 (UniProt Q9UJX2),–,–,-0.414,0.000877
CCDC102A C402 (UniProt Q96A19),–,–,-0.254,0.412
CCDC51 C316 (UniProt Q96ER9),–,–,0.123,-0.207
CDC6 C251 (UniProt Q99741),–,–,-0.0643,-0.108
CDC25C C145 (UniProt P30307),–,–,-0.0728,-0.186
CCDC138 C193 (UniProt Q96M89),–,–,0.164,0.0535

Target,log2 mean competition ratio ([1]; 50 µM),log2 mean competition ratio ([1]; 200 µM),log2 mean competition ratio ([2]; 50 µM),log2 mean competition ratio ([2]; 200 µM)
CFL2 C39 (UniProt Q9Y281),–,–,-0.316,0.305
CCT4 C295 (UniProt P50991),–,–,-0.175,-0.101
CDKN2AIP C24 (UniProt Q9NXV6),–,–,0.0475,0.0702
CEP55 C443 (UniProt Q53EZ4),–,–,0.0107,-0.223
CCDC106 C184,–,–,0.0969,0.0901
CDAN1 C1213,–,–,-0.00881,0.0295
CHAMP1 C770 (UniProt Q96JM3),–,–,0.00248,-0.0504
CEP104 C259 (UniProt O60308),–,–,-0.417,-0.0439
CHAMP1 C119 (UniProt Q96JM3),–,–,0.0984,0.174
CENPF C2052 (UniProt P49454),–,–,0.145,-0.314
CCDC186 C54 (UniProt Q7Z3E2),–,–,0.225,-0.05
CCDC9 C233,–,–,0.0258,-0.181
CDR2L C317 (UniProt Q86X02),–,–,-0.383,-0.0168
CCDC85C C373 (UniProt A6NKD9),–,–,-0.181,0.101
CDC42BPB C784 (UniProt Q9Y5S2),–,–,-0.0503,-0.207
CENPF C2680 (UniProt P49454),–,–,-0.0314,-0.553
CCT7 C158 (UniProt Q99832),–,–,0.549,0.0724
CENPE C2219 (UniProt Q02224),–,–,-0.113,0.447
CDK17 C233 (UniProt Q00537),–,–,-0.327,-0.0424
CD151 C192 (UniProt P48509),–,–,0.663,0.22
CEP135 C473 (UniProt Q66GS9),–,–,0.2,0.0648
CHD1L C321 (UniProt Q86WJ1),–,–,0.512,-0.332
CCAR2 C754,–,–,0.409,0.28
CCT7 C364 (UniProt Q99832),–,–,0.091,-0.188

# Reference: the supplement of paper PMC11732987, “Enantioselective OTUD7B fragment discovery through chemoproteomics screening and high-throughput optimisation” (Communications Chemistry, 2025)
